Experimental data: paper PMC2841202
Results are given in words; binding and its absence hold for the method and conditions named. Binding seen in cells or lysates may run through a third protein. Some binding calls cover weakened binding; strength is not graded here.

Protein sequences, listed by entry. Tags and fused reporters are not part of them.
UniProt Q03526: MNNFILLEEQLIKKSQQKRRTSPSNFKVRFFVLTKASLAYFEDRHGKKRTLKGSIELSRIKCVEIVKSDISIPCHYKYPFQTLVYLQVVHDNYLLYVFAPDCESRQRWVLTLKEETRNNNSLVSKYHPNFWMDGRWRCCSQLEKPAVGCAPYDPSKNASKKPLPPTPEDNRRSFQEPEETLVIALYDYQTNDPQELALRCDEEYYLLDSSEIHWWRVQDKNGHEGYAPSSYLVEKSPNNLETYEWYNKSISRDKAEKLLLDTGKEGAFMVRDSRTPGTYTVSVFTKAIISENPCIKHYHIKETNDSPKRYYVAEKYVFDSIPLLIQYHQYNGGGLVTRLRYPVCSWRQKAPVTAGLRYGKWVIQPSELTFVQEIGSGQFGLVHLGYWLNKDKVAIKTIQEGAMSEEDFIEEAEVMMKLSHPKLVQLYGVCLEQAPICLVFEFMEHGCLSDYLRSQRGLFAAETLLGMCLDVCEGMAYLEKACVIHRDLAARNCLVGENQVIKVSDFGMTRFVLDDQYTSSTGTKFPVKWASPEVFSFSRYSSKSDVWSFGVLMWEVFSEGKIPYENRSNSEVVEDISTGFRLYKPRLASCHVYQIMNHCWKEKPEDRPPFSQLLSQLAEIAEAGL

Legend:
[1] = target: Itk, endogenous in murine thymocytes (mouse (endogenous in thymocytes)) (UniProt Q03526); assay: co-IP; thymocytes of SH2D2A+/+ mice without CXCL12 stimulation; immunoprecipitation with anti-Itk antibody
[2] = target: Itk, endogenous in murine thymocytes (mouse (endogenous in thymocytes)) (UniProt Q03526); assay: co-IP; thymocytes of SH2D2A+/+ mice stimulated with 100 ng/ml CXCL12 for 2 minutes; immunoprecipitation with anti-Itk antibody, blots with anti-Lck, anti-Zap70 and anti-mTSAd

- binding [2]: binds
B1: murine TSAd, endogenous in thymocytes (protein, UniProt Q9QXK9 1-374)
chain: MEFCLAQPCPQGNHEATSSTFNTFQPMNLTQGRCQNLSCGSRPSMQVMKEQGVQLSPRTNHTVVSASAPGTAWVLGNADRAEEVPGKGDLSLQAETRAWVQKTQAHWLLLKTAPLWFHGFITRREAERLLQPQPLGCYLVRFSESAVTFVLSYRSQTCCRHFLLAQLGDGRHVVLGEDSAHAQLQDLLEHYTECPLSPYGEILTQPLARQTAEPAGLSLRADSDSGSKRQDPDTQLSLLLQQGQAQASGHTEKVWASQQKATSQASRPRPPIPAKPQLPPEVYTSPASRLHQAPPINPIYQEPDEPIAFYAMGRGSPGDAPSNIYAEVEGPSGTAPIGHPILRKCWSRPISRGQVREVQGKISSRSRAERGSPS
- binding [1]: no binding (condition: without CXCL12 stimulation)
